Results are given in words; binding and its absence hold for the method and conditions named. For part of these data: In cells and extracts the contact can be indirect. Some binding calls cover weakened binding; strength is not graded here. For part of these data: Where a sequence is shown, tags or fusion partners need not be part of it. One block for each substance: values may come before it.
Experiments:
[1] = molecular target: T1, endogenously tagged GFP-AID-NBR1 (human (endogenous in HAP1)) (UniProt Q14596); test: co-IP; lysates of HAP1 WT and GFP-AID-NBR1 cells on GFP-trap magnetic beads, 1 h at 4 °C, washed in 25 mM Hepes pH 7.5, 125 mM NaCl, 0.05% Triton X 100; western blot
T1 sequence: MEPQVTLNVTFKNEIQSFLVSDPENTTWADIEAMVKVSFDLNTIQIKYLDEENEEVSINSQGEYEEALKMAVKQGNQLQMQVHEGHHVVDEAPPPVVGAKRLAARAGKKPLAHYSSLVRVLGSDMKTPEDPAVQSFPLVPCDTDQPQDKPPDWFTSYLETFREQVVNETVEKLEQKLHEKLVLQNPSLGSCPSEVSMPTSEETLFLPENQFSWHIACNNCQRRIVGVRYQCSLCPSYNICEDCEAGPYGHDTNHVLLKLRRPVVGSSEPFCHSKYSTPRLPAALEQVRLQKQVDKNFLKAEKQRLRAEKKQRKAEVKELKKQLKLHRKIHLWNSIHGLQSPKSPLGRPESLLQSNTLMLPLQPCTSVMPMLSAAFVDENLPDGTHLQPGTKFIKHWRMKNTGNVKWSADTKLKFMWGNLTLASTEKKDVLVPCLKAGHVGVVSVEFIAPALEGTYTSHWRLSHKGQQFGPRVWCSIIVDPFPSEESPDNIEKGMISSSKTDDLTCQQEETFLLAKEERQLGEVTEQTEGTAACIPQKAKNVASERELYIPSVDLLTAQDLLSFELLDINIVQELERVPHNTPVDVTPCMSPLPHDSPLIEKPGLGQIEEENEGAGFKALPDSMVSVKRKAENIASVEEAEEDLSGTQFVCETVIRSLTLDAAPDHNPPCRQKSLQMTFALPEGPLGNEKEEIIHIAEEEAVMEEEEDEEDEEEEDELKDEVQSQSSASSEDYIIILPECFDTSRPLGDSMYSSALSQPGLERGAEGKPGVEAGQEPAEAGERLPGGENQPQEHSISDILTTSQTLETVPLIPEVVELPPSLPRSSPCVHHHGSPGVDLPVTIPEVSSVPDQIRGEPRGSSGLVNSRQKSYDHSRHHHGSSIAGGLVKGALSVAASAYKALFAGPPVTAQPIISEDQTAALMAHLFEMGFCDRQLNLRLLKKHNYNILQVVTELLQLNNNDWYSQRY

By UniProt entry, the sequences of proteins in these tests, tags left out.
UniProt Q8TDY2: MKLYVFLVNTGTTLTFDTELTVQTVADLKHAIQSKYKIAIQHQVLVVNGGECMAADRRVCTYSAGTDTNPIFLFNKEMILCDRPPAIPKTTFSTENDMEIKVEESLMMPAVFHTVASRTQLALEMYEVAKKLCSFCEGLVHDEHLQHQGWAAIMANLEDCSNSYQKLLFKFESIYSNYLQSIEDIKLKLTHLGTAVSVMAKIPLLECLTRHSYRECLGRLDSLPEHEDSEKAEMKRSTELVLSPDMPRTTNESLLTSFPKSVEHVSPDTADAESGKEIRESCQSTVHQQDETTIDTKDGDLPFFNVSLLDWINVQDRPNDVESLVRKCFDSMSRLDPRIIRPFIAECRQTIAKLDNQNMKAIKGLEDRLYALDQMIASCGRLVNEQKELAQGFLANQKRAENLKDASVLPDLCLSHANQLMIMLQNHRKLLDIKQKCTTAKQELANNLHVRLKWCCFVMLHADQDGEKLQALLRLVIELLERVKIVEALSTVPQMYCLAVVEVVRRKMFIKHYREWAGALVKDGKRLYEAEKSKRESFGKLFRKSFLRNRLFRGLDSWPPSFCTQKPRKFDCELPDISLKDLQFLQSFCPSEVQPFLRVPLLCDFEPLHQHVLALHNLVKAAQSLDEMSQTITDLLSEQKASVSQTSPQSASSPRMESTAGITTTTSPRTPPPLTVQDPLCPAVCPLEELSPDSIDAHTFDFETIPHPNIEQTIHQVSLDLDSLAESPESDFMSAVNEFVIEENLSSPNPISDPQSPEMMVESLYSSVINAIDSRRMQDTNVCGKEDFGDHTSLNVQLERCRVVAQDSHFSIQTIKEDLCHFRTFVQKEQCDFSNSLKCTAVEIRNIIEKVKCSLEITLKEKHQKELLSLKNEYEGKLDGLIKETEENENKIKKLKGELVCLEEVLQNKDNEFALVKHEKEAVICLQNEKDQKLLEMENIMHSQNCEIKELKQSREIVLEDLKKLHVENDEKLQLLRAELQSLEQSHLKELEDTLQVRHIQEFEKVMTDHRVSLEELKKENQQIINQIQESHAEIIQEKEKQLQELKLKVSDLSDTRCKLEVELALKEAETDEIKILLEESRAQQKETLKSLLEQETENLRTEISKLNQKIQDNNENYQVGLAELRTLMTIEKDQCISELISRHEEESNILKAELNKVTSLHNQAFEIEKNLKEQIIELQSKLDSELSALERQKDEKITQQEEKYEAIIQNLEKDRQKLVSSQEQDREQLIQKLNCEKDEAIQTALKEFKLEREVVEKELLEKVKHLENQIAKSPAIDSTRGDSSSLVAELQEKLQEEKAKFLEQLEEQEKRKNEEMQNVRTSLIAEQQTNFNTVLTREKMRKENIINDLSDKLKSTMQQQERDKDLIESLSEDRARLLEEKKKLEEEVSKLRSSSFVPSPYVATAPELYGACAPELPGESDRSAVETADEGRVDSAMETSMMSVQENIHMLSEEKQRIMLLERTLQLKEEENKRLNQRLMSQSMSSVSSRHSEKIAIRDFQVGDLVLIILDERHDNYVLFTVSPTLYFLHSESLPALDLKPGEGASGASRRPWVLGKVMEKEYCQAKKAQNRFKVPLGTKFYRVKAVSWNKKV

[2] = molecular target: GST-TAX1BP1 (human) (UniProt Q86VP1); test: pull-down; microscopy-based protein-protein interaction assay: GST-tagged bait saturated on Glutathione Sepharose 4B beads, fluorescent prey at 2 µM, 25 mM HEPES pH 7.5, 150 mM NaCl, 1 mM DTT, 30 min-1 h at room temperature, beads imaged at the equilibrium by confocal microscopy; both purified
[3] = molecular target: GST-TAX1BP1 (human) (UniProt Q86VP1); test: pull-down; microscopy-based pull-down followed over time: GST-TAX1BP1 on glutathione beads with 2 µM mCherry-p62 for 30 min, then GFP-NBR1 (2 µM) added and imaged for 30 min (one image every 2 min); reactions without GFP-NBR1 or without mCherry-p62 as controls; both purified

binding [1]: binds
Substance: FIP200 (endogenous) (from UniProt Q8TDY2 1-1594)

binding [2]: binds weakly
Substance: GFP-p62 WT (from UniProt Q13501 1-440)

binding [3]: binds weakly
Substance: mCherry-p62 WT (from UniProt Q13501 1-440)

From publication PMC8410870
